Sequences of proteins named here, by UniProt entry; tags and fusion partners are left off.
UniProt P48730, whole entry: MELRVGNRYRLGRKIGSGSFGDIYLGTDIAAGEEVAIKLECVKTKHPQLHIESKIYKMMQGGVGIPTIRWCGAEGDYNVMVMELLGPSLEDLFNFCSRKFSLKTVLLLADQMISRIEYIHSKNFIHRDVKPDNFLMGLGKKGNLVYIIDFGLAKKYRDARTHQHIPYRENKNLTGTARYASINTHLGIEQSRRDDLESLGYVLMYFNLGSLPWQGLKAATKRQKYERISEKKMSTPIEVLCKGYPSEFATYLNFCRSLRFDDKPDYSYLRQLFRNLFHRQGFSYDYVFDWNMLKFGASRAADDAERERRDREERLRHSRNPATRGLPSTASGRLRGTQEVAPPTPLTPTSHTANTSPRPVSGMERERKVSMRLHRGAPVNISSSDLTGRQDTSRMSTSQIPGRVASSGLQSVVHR
UniProt P49674, whole entry: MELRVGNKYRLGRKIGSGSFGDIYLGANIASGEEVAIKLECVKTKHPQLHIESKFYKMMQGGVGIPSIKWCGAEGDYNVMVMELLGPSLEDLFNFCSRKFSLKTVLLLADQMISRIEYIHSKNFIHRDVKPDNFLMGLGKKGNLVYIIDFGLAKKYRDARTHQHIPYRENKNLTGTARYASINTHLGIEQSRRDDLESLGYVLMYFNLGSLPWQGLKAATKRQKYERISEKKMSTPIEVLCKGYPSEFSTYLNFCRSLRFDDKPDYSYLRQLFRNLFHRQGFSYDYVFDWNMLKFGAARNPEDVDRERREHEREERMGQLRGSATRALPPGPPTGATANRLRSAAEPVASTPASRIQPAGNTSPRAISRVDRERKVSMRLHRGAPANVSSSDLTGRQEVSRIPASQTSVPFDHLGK

According to patent publication US20170240556A1, “BIFLUORODIOXALANE-AMINO-BENZIMIDAZOLE KINASE INHIBITORS FOR THE TREATMENT OF CANCER, AUTOIMMUNEINFLAMMATION AND CNS DISORDERS” (4SC DISCOVERY GMBH, priority 2012, published 2017):

Legend:
[1] = biological target: Casein kinase 1 delta (CSKN1D) (Homo sapiens, UniProt P48730); assay: Casein kinase assay, CK1 delta; type: biochemical; conditions: read-out: CK1 delta Assay; recombinant CSKN1D 5 nM, ATP 10 μM
[2] = biological target: Casein kinase 1 epsilon (CSKN1E) (Homo sapiens, UniProt P49674); assay: Casein kinase assay, CK1 epsilon; type: biochemical; conditions: read-out: CK1 epsilon Assay; recombinant CSKN1E 30 nM, ATP 10 μM
[3] = system: Hedgehog signaling pathway; assay: Hedgehog reporter assay (Gli Reporter - NIH3T3 Cell Line); type: cell-based; conditions: read-out: HH Assay; Gli reporter NIH3T3 cells, murine SHH stimulation, 24 h

For Cc1c(C(=O)Nc2nc3cc4c(cc3[nH]2)OC(F)(F)O4)cnn1-c1ccc(F)cc1, the IC50 [1] was < 200 nM, the IC50 [2] was 200 to 1000 nM and the IC50 [3] was 1000 to 15000 nM.

The structures given here were assigned with low confidence; some may be wrong.
